Experimental findings from publication PMC7865352 are described below.

The target of the data set is GST-SH2 (c-Src SH2 domain) (human) (UniProt P12931). The data set is described as follows: ELONA. The note with it: recombinant protein; label: digoxigenin; single-stranded DNA; letters put together from the description.

The exact form of at least one protein or probe is not confirmed. A weaker result is weaker than the reference pair of the same experiment. At least one verdict was read from the data and is not stated in words by the source.

Turning to “GTTGCTCGTATTTAGGGCCAACGCAACCCGCAAACCCACCCACCCAACCCACCACCGCACACCAGTCTTCATCCGC [ApSH2.17R]”, the binding result is listed as “binds more weakly”.
In the case of “GTTGCTCGTATTTAGGGCGGGGGGGCGGGGGAGGAGGTGGCGGGAGTATCCATTGTCTACACCAGTCTTCATCCGC [ApSH2.14R]” it was “binds more weakly”.
